Columns and labels:
Type in all cases: cell-based
[1] = system: oral epidermoid carcinoma KB cells; test: In vitro cell growth inhibition, methylene blue dye assay, KB cells; conditions: Homo sapiens, 72 h, read-out: IC50 on the proliferation of cells, KB
Description: (§1) The synthesized compounds 5 to 17 were evaluated for antiproliferative activities against four carcinoma cells, oral epidermoid carcinoma KB cells, non-small-cell lung carcinoma H460 cells, colorectal carcinoma HT29 cells and stomach carcinoma MKN45 cells, as well as the MDR-positive cell lines KB-VIN10, that overexpressed P-gp 170/MDR (Table 1). The controls were compounds 1 and 3.
(§2) Human oral epidermoid carcinoma KB cells, non-small-cell lung carcinoma H460 cells, colorectal carcinoma HT29 cells and stomach carcinoma MKN45 cells were maintained in RMPI-1640 medium supplied with 5% fetal bovine serum (FBS). […] Cells in logarithmic phase were cultured at a density of 5000 cells/mL/well in a 24-well plate. KB-VIN10 cells were cultured in drug-free medium for 3 days prior to use. The cells were exposed to various concentrations of the test drugs for 72 hours. The methylene blue dye assay was used to evaluate the effect of the test compounds on cell growth (Finlay et al., 1984).

[2] = system: non-small-cell lung carcinoma H460 cells; test: In vitro cell growth inhibition, methylene blue dye assay, H460 cells; conditions: Homo sapiens, NCI-H460, 72 h, read-out: IC50 on the proliferation of cells, H460
Description: as §1, §2

[3] = system: stomach carcinoma MKN45 cells; test: In vitro cell growth inhibition, methylene blue dye assay, MKN45 cells; conditions: Homo sapiens, MKN-45, 72 h, read-out: IC50 on the proliferation of cells, MKN45
Description: as §1, §2

[4] = system: colorectal carcinoma HT29 cells; test: In vitro cell growth inhibition, methylene blue dye assay, HT29 cells; conditions: Homo sapiens, HT-29, 72 h, read-out: IC50 on the proliferation of cells, HT29
Description: as §1, §2

SMILES: COc1cc2c(c(OC)c1OC)-c1ccc(OC)c(=O)cc1[C@@H](NC(C)=O)CC2 [Compound 3, Colchicine, reference compound]
- IC50 [1]: 12 ± 1.2 nM
- IC50 [2]: 20.1 ± 3 nM
- IC50 [3]: 12.4 ± 2 nM
- IC50 [4]: 13.2 ± 2.3 nM
